Here are results for 5 substances from PMC5393397.

Protein sequences, listed by entry. Tags and fused reporters are not part of them. Lines headed by an entry give the natural chain unless they say otherwise; changes in a name come on top.
UniProt P06730: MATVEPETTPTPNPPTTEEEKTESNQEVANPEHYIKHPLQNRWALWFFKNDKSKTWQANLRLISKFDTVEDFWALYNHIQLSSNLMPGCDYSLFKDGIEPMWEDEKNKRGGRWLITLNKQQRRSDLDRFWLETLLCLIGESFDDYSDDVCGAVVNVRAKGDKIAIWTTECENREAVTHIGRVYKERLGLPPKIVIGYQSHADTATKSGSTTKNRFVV
UniProt P63073: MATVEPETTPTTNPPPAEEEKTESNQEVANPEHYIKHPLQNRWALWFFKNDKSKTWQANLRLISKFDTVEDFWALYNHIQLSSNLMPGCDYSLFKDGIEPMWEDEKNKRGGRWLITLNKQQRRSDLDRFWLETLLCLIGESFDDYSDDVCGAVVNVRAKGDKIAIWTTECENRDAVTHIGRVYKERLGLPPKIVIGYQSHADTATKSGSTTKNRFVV
UniProt P11940: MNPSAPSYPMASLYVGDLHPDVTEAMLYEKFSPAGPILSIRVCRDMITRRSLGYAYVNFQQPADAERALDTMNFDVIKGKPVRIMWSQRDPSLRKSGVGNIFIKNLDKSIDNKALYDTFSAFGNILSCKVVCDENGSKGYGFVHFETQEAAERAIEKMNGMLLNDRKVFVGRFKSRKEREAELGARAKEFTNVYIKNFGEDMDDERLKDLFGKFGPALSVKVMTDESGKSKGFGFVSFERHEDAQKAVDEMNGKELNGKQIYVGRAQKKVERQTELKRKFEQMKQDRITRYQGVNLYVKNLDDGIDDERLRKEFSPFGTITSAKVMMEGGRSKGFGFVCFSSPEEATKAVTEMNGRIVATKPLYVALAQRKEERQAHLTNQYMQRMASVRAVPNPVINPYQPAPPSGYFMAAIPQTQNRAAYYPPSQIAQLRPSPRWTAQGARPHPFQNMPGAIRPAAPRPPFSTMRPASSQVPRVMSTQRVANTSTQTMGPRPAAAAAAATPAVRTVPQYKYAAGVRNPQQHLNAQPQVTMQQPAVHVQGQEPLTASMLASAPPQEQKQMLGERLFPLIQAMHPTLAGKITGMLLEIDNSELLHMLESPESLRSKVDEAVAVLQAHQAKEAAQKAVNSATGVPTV
UniProt O70194: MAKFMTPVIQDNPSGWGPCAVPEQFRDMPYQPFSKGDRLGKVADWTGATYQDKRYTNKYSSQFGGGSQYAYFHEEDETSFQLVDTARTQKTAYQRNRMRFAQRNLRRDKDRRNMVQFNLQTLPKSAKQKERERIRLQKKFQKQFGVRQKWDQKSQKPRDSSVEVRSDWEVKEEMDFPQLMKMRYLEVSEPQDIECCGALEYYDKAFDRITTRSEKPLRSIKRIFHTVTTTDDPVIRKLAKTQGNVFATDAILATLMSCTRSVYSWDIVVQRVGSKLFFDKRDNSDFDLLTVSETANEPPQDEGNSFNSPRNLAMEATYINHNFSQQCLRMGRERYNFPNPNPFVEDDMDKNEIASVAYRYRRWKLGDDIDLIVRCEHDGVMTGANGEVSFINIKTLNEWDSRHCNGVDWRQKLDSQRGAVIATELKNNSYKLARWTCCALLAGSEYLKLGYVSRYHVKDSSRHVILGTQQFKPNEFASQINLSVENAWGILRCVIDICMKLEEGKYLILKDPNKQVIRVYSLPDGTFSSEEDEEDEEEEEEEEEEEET
UniProt O15371: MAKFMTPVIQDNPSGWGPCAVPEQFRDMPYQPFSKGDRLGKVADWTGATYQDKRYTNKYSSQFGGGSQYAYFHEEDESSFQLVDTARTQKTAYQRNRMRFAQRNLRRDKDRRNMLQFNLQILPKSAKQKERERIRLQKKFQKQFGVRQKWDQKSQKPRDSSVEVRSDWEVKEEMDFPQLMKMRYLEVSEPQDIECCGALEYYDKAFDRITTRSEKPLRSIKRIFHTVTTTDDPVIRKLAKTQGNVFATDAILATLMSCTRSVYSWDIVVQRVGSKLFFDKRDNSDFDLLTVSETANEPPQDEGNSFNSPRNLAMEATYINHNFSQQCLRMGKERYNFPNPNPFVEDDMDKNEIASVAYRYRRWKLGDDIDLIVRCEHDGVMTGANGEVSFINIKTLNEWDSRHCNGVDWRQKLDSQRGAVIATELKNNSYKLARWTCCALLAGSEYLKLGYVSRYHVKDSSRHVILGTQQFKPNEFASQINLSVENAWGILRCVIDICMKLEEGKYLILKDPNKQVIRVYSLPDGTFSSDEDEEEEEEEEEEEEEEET
UniProt Q80XI3: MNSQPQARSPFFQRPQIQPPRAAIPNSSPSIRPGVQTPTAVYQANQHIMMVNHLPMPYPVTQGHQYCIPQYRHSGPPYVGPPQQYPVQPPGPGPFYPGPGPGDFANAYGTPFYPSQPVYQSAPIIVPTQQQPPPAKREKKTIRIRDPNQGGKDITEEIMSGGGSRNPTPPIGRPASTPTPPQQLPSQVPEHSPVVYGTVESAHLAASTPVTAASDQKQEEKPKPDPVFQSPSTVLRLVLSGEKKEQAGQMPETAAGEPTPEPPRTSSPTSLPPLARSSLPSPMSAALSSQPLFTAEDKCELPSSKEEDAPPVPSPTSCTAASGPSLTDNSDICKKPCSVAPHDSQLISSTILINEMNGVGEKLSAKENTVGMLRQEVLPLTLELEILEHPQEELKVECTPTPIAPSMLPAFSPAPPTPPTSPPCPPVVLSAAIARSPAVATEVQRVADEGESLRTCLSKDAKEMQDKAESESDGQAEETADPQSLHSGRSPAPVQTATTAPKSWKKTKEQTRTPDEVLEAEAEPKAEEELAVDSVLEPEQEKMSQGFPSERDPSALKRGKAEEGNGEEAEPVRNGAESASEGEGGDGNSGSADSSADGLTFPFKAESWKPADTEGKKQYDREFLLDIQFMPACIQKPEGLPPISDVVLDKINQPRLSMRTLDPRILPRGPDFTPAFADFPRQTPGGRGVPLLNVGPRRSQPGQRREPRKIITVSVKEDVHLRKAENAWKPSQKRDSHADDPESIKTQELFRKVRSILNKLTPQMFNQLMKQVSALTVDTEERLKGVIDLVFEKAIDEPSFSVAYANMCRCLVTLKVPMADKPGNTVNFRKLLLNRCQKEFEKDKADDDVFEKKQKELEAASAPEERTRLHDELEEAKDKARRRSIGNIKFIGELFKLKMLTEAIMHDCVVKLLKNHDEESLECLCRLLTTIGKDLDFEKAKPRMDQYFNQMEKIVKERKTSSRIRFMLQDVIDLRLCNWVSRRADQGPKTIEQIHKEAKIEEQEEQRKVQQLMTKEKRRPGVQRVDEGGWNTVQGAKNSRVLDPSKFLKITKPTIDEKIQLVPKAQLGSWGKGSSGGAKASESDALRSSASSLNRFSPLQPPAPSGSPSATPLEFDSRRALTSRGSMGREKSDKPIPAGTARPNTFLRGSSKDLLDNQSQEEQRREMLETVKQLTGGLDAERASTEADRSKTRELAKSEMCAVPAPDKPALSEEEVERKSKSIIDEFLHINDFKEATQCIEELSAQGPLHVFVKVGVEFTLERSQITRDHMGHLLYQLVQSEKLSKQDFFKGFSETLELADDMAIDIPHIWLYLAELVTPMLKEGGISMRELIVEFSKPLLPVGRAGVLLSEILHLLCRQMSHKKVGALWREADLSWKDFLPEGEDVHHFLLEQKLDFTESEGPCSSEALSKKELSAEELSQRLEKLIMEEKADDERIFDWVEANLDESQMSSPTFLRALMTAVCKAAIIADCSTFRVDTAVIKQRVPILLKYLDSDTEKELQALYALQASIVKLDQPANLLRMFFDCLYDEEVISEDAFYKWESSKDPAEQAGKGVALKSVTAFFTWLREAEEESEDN

The target in assay [1] is eIF4E of the cells in which NS6 cleaved PABP (Fig. S5D) (UniProt P06730). In words: pull-down; enrichment of the eIF4F complex on m7GTP-Sepharose from cells in which NS6 cleaved PABP, blot (Fig. S5D); cells not given.
The target of assay [2] is eukaryotic initiation factor 4E (eIF4E), cap-binding protein (mouse (endogenous in BV-2)) (UniProt P63073). In words: pull-down; m7GTP-Sepharose enrichment of eIF4E-containing complexes from lysates of mock or MNV-infected cells (BV-2 for Fig. 4C; cells of Fig. S3E not named), Western blot. For orientation: Immunoblotting shows a protein as a band on a membrane.

These are yes or no findings as the source states them, for the method shown. Binding seen in cells or lysates may run through a third protein. Some binding calls cover weakened binding; strength is not graded here.

With “N-terminal cleavage products of PABP (NS6 cleavage) (from UniProt P11940 1-440) (domain or fragment)”, the binding entry in assay [1] is recorded as “binds”. On to eIF3D (from UniProt O70194 1-548), for which the binding entry in assay [2] is “binds”. “eIF3D of the cells in which NS6 cleaved PABP (Fig. S5D) (from UniProt O15371 1-548)”: the binding entry in assay [1] is recorded as “binds”. On to “eIF4GII (eIF4G3), the ~170 kDa long form (from UniProt Q80XI3 1-1579)”, for which the binding entry in assay [2] is on record as “binds”.

Take “full length PABP (Fig. S5D) (from UniProt P11940 1-636)”: in assay [1], the binding result is listed as “binds”.
